Patent US20230312680A1
Results are given in words; binding and its absence hold for the method and conditions named. Binding calls can cover weak binding; strength is not graded here. Ends that are not written are not given here.

What was measured:
[1] = target: HLA-A*02:01 (human); experiment: UV-ligand exchange, b2m ELISA; grade of exchange yield
[2] = target: HLA-B*08:01 (human); experiment: b2m dissociation at 37 C; grade of mean half-life
[3] = target: HLA-A*03:01 (human); experiment: UV-ligand exchange, b2m ELISA; grade of exchange yield

| binding [1] | binding [2] | Binder | also measured |
| --- | --- | --- | --- |
| binds | – | YTFRYPLSL [… (SEQ ID No 227)] | – |
| binds | – | DTDSSVHVQV [… (SEQ ID No 244)] | – |
| binds | – | SLPRFQVTL [… (SEQ ID No 224)] | – |
| binds | – | YASEGVKQV [… (SEQ ID No 243)] | – |
| binds | – | GVATRVDAI [… (SEQ ID No 234)] | – |
| binds | – | SVTESTHHL [… (SEQ ID No 231)] | – |
| – | binds | TPKLRETSI [… (SEQ ID No 166)] | – |
| – | binds | EAMKRLSYI [… (SEQ ID No 157)] | – |
| – | binds | VLKHKLDEL [… (SEQ ID No 159)] | – |
| – | binds | ALKTTTTAL [… (SEQ ID No 161)] | – |
| binds | – | ISVPAKTSL [… (SEQ ID No 229)] | – |
| binds | – | TISSLTHEL [… (SEQ ID No 232)] | – |
| binds | – | RLWDWVPLA [… (SEQ ID No 228)] | – |
| binds | – | SAIPFSMTL [… (SEQ ID No 236)] | – |
| binds | – | VLQGLLRSL [… (SEQ ID No 70)] | – |
| – | binds | TSHERLTTL [… (SEQ ID No 167)] | – |
| – | binds | MLRKIAVAA [… (SEQ ID No 154)] | – |

| binding [1] | binding [2] | Binder | also measured |
| --- | --- | --- | --- |
| – | binds | YLLEKSRVI [… (SEQ ID No 170)] | – |
| binds | – | YLTDLQVSL [… (SEQ ID No 72)] | – |
| binds | – | VSSSLTLKV [… (SEQ ID No 217)] | – |
| – | binds | NAMLRKVAV [… (SEQ ID No 153)] | – |
| binds | – | KVVSVLYNV [… (SEQ ID No 75)] | – |
| – | binds | SIKTKSAEM [… (SEQ ID No 164)] | – |
| – | binds | TSMPRSSAM [… (SEQ ID No 169)] | – |
| binds | – | RMTTQLLLL [… (SEQ ID No 220)] | – |
| – | binds | MGSARVAEL [… (SEQ ID No 152)] | – |
| binds | – | STIPALHEI [… (SEQ ID No 242)] | – |
| binds | – | IMFDDAIERA [… (SEQ ID No 216)] | – |
| binds | – | PLPRPGAVL [… (SEQ ID No 219)] | – |
| binds | – | ALMRLIGCPL [… (SEQ ID No 222)] | – |
| binds | – | RQPNILVHL [… (SEQ ID No 241)] | – |
| binds | – | YLEDTDRNL [… (SEQ ID No 71)] | – |
| binds | – | FLIEELLFA [… (SEQ ID No 73)] | – |
| – | binds | HLLLKVLAF [… (SEQ ID No 151)] | – |

Second part, the binder before the results:

| Binder | binding [1] | binding [2] | also measured |
| --- | --- | --- | --- |
| LPKLAGLL [LPKLAGLL (SEQ ID No 158)] | – | binds | – |
| SLGKHTVAL [… (SEQ ID No 6)] | binds | – | – |
| TTYEGSITV [… (SEQ ID No 69)] | binds | – | – |
| ALIYNLVGI [… (SEQ ID No 3)] | binds | – | – |
| LNKQKVTF [LNKQKVTF (SEQ ID No 44)] | – | binds | – |
| DVKKKIKEV [… (SEQ ID No 48)] | – | binds | – |
| ATFERVLLR [… (SEQ ID No 94)] | – | – | binding [3]: binds |
| FLDPDRHFL [… (SEQ ID No 64)] | binds | – | – |
| DMKKAKEQL [… (SEQ ID No 46)] | – | binds | – |
| MPNLRSVDL [… (SEQ ID No 47)] | – | binds | – |
| SLRLKNVQL [… (SEQ ID No 51)] | – | binds | – |
| QAKTHSTL [QAKTHSTL (SEQ ID No 162)] | – | binds | – |
| MMEEMIFNL [… (SEQ ID No 63)] | binds | – | – |
| HVKEKFLL [HVKEKFLL (SEQ ID No 156)] | – | binds | – |
| ALFKAWAL [ALFKAWAL (SEQ ID No 4)] | binds | – | – |
| KVLGVNVML [… (SEQ ID No 62)] | binds | – | – |
| DMKYKNRV [DMKYKNRV (SEQ ID No 50)] | – | binds | – |
| YPKARLAF [YPKARLAF (SEQ ID No 160)] | – | binds | – |
| TLLKALLEI [… (SEQ ID No 2)] | binds | – | – |
| YMVHIQVTL [… (SEQ ID No 61)] | binds | – | – |
| FAFRKEAL [FAFRKEAL (SEQ ID No 171)] | – | binds | – |

| Binder | binding [1] | binding [2] | also measured |
| --- | --- | --- | --- |
| KVVDRWNEK [… (SEQ ID No 99)] | – | – | binding [3]: binds |
| GLLQELSSI [… (SEQ ID No 66)] | binds | – | – |
| ALKARTVTF [… (SEQ ID No 43)] | – | binds | – |
| QSMYYPLQLK [… (SEQ ID No 95)] | – | – | binding [3]: binds |
| ALQAFEFRV [… (SEQ ID No 7)] | binds | – | – |
| SLLLPSIFL [… (SEQ ID No 67)] | binds | – | – |
| VLLAGFKPPL [… (SEQ ID No 9)] | binds | – | – |
| FAHHGRSL [FAHHGRSL (SEQ ID No 223)] | binds | – | – |
| QGLLRPVF [QGLLRPVF (SEQ ID No 163)] | – | binds | – |
| GLLSLTSTLYL [… (SEQ ID No 60)] | binds | – | – |
| RLLDFINVL [… (SEQ ID No 5)] | binds | – | – |
| KILEEHTNK [… (SEQ ID No 93)] | – | – | binding [3]: binds |
| SLLDLYQL [SLLDLYQL (SEQ ID No 221)] | binds | – | – |
| MIPTFTALL [… (SEQ ID No 1)] | binds | – | – |
| VGREKKLAL [… (SEQ ID No 45)] | – | binds | – |
| MAAVKQAL [MAAVKQAL (SEQ ID No 150)] | – | binds | – |
| RSLRYYYEK [… (SEQ ID No 91)] | – | – | binding [3]: binds |
| LLQPPPLLAR [… (SEQ ID No 98)] | – | – | binding [3]: binds |
| KLFDTQQFL [… (SEQ ID No 68)] | binds | – | – |
| LPRLKAFMI [… (SEQ ID No 49)] | – | binds | – |
| YLVTKVVAV [… (SEQ ID No 8)] | binds | – | – |
